Measured values: the M2OR odorant receptor database
Changes are numbered by the printed parent chain. The entries are a selection whose mix differs from that of the whole data set. The calls were merged from several studies; some rest on single wells. The list shows a part of the results.

Chains of the proteins cited; added tags and fusions are not shown. A change or cut given only in a name is not applied to a line headed by its entry. A line that says so, or that is headed by a name, gives the form on record, which may keep a tag or linker.
UniProt Q96R45: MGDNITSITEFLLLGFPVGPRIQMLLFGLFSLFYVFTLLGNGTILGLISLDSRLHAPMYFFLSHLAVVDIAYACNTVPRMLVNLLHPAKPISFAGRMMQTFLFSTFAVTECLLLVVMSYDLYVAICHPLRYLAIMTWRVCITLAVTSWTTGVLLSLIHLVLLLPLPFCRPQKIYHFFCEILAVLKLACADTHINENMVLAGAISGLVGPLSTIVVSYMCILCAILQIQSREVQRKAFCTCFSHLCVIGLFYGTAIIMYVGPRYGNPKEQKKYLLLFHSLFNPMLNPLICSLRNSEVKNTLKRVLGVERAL
OR2A7, as listed by the source: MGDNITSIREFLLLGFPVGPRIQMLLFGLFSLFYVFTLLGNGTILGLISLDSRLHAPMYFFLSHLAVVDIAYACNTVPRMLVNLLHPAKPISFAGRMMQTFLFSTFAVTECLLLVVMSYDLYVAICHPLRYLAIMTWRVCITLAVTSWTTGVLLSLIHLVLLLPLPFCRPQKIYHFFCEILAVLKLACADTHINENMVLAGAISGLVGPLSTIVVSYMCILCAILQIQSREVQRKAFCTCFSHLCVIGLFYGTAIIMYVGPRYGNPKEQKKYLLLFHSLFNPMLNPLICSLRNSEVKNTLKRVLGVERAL
OR2A2, as listed by the source: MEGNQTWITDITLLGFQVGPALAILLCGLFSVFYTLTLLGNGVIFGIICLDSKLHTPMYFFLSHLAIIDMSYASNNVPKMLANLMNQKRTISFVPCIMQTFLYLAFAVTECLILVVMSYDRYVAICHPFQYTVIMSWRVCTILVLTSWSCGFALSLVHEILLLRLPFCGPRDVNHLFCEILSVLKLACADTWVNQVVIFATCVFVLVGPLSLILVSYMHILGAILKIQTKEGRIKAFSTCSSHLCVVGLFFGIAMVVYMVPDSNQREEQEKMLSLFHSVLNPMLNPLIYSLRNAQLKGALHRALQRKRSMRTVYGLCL

Key:
Conditions in all cases: stereoisomer not certain
[1] = target: T1, OR1L8 (Homo sapiens) (UniProt Q8NGR8)
T1 sequence (whole entry): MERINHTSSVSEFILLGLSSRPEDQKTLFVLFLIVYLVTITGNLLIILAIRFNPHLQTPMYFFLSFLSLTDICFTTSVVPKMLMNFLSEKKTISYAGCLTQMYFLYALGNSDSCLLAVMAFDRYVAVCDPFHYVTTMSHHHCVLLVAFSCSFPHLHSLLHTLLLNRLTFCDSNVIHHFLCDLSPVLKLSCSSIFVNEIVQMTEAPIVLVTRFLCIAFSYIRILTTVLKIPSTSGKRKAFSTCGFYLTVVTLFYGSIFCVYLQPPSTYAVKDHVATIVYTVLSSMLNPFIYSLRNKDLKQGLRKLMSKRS
Method in brief: (§1)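 Assay methods differ from source to source, frequently being transient luciferase assays in mammalian cell lines. For each receptor–molecule pair, the label responsive (active) applies when the original authors judged the measured signal statistically different from baseline, and non-responsive (inactive) applies otherwise.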

[2] = tested on: T2, OR1M1
T2 sequence (whole entry): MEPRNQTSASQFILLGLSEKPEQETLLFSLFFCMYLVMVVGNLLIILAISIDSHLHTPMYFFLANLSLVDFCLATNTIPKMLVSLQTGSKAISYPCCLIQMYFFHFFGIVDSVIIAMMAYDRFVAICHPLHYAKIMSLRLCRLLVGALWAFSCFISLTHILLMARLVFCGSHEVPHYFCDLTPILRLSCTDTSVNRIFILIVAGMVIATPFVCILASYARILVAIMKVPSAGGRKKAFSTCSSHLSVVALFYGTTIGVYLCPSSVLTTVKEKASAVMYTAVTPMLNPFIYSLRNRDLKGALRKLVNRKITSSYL
Method in brief: as §1

[3] = target: T3, OR1N1 (Homo sapiens) (UniProt Q8NGS0)
T3 sequence (whole entry): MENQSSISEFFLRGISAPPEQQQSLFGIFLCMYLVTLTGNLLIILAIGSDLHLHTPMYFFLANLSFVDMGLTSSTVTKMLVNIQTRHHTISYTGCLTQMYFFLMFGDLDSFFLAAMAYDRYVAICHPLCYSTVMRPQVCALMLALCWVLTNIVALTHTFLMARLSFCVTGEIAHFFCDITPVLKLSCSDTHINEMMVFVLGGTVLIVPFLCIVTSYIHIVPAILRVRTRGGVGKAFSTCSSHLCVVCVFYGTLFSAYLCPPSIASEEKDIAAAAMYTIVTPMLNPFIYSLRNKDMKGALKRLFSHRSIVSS
Method in brief: as §1

[4] = target: T4, OR1N2 (Homo sapiens) (UniProt Q8NGR9)
T4 sequence (whole entry): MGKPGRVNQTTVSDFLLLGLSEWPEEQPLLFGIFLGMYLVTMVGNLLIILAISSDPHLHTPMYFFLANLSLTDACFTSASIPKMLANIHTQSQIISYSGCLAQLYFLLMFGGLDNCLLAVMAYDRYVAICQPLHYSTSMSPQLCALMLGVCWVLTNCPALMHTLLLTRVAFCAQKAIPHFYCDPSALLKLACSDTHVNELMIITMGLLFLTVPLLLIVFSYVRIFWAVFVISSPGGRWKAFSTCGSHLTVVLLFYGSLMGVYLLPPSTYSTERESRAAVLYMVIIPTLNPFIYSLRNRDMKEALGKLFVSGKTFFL
Method in brief: as §1

[5] = tested on: T5, OR1N2
T5 sequence (whole entry): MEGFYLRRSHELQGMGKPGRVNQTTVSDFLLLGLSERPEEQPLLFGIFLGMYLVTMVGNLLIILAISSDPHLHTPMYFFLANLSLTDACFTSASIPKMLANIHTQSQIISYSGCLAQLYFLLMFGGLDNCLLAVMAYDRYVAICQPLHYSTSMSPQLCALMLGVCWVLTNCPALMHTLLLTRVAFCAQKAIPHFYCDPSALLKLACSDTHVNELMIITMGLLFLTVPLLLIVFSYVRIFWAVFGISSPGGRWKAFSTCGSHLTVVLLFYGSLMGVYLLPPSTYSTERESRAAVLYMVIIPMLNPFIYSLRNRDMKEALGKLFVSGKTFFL
Method in brief: as §1

[6] = tested on: T6, OR1Q1
T6 sequence (whole entry): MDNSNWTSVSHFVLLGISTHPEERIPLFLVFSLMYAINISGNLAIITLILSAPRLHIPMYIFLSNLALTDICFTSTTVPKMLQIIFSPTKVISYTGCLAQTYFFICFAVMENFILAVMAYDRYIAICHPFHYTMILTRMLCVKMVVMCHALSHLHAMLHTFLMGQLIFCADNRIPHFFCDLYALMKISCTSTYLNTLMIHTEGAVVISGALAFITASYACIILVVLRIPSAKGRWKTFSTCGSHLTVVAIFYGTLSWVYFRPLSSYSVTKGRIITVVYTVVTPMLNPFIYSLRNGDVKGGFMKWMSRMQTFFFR
Method in brief: as §1

[7] = tested on: T7, OR1S1
T7 sequence (whole entry): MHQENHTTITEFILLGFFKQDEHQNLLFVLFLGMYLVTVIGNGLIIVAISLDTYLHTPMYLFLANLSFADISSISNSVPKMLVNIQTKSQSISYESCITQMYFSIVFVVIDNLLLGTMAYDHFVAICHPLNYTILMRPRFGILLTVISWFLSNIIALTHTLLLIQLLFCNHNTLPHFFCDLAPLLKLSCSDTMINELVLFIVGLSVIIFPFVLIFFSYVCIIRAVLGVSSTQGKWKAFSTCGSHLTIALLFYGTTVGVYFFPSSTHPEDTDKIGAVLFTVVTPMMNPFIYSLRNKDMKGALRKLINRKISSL
Method in brief: as §1

[8] = tested on: T8, OR1S2
T8 sequence (whole entry): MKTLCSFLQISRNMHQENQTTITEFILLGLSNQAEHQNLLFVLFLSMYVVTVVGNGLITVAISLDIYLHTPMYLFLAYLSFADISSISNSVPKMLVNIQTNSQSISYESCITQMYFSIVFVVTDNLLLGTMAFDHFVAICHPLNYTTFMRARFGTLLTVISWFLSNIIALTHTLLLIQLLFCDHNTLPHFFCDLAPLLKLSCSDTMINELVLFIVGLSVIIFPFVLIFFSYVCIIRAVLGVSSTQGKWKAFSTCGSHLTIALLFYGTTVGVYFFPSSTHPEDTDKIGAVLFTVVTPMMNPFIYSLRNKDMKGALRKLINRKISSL
Method in brief: as §1

[9] = target: T9, OR2A12 (Homo sapiens) (UniProt Q8NGT7)
T9 sequence (whole entry): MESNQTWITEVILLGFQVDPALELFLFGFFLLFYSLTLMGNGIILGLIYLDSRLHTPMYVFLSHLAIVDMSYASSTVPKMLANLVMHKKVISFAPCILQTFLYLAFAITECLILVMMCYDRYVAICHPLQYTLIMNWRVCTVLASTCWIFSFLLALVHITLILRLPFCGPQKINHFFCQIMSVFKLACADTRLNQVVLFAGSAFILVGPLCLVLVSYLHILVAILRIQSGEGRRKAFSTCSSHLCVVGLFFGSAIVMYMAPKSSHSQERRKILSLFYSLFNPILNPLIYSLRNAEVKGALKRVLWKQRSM
Method in brief: as §1

[10] = target: T10, OR2A14 (Homo sapiens) (UniProt Q96R47)
T10 sequence (whole entry): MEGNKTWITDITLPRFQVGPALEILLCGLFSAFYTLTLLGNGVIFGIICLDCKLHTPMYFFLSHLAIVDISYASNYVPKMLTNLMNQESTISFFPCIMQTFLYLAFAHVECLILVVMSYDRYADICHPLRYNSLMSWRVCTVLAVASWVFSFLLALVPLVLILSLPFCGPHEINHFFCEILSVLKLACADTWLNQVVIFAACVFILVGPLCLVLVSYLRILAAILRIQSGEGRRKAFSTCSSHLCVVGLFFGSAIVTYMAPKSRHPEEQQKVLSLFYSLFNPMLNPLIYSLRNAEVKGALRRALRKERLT
Method in brief: as §1

[11] = tested on: T11, OR2A1
T11 sequence (whole entry): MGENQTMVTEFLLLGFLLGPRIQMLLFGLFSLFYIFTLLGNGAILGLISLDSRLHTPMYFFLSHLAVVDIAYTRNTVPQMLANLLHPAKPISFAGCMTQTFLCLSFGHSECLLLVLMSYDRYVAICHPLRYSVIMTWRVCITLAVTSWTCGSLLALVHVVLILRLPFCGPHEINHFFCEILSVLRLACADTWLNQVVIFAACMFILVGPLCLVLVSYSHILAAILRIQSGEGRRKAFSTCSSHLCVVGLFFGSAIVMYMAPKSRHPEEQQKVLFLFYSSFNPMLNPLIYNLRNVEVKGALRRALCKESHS
Method in brief: as §1

[12] = tested on: T12, OR2A1; remark: listed apart in the source
T12 sequence (whole entry): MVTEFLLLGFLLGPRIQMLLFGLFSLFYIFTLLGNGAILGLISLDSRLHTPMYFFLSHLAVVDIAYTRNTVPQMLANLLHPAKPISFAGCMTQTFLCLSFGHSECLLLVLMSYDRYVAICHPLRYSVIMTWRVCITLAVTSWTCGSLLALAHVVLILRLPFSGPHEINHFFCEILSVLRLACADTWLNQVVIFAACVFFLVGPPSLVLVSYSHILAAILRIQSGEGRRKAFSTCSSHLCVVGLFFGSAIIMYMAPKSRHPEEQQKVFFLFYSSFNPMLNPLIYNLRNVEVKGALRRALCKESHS
Method in brief: as §1

[13] = target: T13, OR2A2 (Homo sapiens) (UniProt Q6IF42)
T13 sequence (whole entry): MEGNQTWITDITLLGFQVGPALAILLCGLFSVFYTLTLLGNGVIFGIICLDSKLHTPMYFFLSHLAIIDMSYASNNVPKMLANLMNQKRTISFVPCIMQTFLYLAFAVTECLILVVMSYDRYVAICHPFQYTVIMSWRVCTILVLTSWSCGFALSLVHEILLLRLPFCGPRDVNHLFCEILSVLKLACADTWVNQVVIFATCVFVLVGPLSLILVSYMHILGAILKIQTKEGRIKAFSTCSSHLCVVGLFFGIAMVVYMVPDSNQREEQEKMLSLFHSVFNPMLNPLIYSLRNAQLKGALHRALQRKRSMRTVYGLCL
Method in brief: as §1

[14] = target: T14, OR2A25 (Homo sapiens) (UniProt A4D2G3)
T14 sequence (whole entry): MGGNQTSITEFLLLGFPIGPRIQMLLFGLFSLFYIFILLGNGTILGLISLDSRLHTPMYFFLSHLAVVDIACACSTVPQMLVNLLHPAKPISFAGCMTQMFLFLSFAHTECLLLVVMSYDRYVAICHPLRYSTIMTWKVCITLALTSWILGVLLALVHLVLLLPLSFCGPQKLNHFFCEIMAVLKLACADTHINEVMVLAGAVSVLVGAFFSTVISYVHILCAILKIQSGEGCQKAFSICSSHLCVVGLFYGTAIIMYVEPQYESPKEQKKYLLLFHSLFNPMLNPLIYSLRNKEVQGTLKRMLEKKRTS
Method in brief: as §1

[15] = tested on: T15, OR2A2
T15 sequence (whole entry): T13 sequence (whole entry) with F280L
Method in brief: as §1

[16] = target: T16, OR2A4 (Homo sapiens) (UniProt O95047)
T16 sequence (whole entry): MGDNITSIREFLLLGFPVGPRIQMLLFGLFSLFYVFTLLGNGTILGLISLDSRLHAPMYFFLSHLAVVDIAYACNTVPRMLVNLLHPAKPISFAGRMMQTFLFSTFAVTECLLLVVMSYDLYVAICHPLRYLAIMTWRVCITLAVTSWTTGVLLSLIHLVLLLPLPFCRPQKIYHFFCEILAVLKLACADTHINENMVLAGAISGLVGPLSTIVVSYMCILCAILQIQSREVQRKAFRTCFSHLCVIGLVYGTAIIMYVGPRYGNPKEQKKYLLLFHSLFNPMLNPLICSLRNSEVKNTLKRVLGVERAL
Method in brief: as §1

[17] = target: T17, OR2A5 (Homo sapiens) (UniProt Q96R48)
T17 sequence (whole entry): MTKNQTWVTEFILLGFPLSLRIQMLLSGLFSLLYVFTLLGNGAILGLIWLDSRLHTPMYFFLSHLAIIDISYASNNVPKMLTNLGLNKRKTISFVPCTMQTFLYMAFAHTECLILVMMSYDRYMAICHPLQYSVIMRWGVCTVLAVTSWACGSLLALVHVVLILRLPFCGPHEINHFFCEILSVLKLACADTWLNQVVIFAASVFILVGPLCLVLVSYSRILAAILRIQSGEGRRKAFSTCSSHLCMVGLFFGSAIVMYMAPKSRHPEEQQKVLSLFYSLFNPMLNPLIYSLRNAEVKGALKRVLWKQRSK
Method in brief: as §1

[18] = target: T18, OR2A7 (Homo sapiens) (UniProt Q96R45)
T18 sequence (whole entry): T16 sequence (whole entry) with R9T, R238C, V250F
Method in brief: as §1

[19] = tested on: T19, OR2A7
T19 sequence (whole entry): T16 sequence (whole entry) with R238C, V250F
Method in brief: as §1

[20] = target: T20, OR2AG1 (Homo sapiens) (UniProt Q9H205)
T20 sequence (whole entry): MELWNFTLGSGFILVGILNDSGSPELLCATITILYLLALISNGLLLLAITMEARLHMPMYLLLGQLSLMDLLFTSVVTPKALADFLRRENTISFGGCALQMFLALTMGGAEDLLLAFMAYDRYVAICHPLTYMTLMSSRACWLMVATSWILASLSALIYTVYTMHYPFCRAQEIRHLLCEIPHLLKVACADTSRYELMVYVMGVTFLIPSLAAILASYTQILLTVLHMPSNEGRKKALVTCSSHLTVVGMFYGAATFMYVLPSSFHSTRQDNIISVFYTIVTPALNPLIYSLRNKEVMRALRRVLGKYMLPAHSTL
Method in brief: as §1

Measured: odorant receptor agonist call

CCC(C)=O
inactive: all assays above
